{"source": "PubChem BioAssay AID743454 (Peter MacCallum Cancer Centre, 2014)", "test": "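Search for knock-downs that restore vorinostat killing in resistant colon cancer cells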 (primary screen)", "system": "human HCT116-VR colon cancer cells, selected for vorinostat resistance", "knock-down reagent": "siRNA pool against human genes, 40 nM siRNA pool", "time to read-out": "vorinostat for 24 h, read-out about 72 h after transfection", "treatment": "vorinostat at 2.5 µM final", "measured": "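Cell viability by CellTiter-Fluor and caspase 3/7 activity by luminescence, each scaled to mock wells per plate, duplicates averaged, then robust z-scored over all plates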", "reading the numbers": "viability robust z-score: higher = more viable cells than screen typical; caspase robust z-score: higher = more caspase 3/7 activity than screen typical", "call rule": "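a knock-down is a hit when classed RV1 or RV2 for lowered viability, or CA1 or CA2 for caspase activation; those lethal without drug were dropped; hits were retested singly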", "note": "This is an unselected part of about 18,000 reagents. 450 of all reagents (2.5%) count as active. 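Single biological run; no consistent viability z cut-off exists, so the class columns, not z-scores, define the calls.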 Entries without a mark were called inactive."}
{"gene": "MAP4K5 (GeneID 11183)", "PubChem SID": "SID56478702", "viability hit class": "no change", "caspase hit class": "no change", "viability robust z-score": -0.72, "caspase robust z-score": -1.25}
{"gene": "SEPTIN12 (GeneID 124404)", "PubChem SID": "SID135623109", "viability hit class": "no change", "caspase hit class": "no change", "viability robust z-score": -1.16, "caspase robust z-score": -1.08}
{"gene": "RGMA (GeneID 56963)", "PubChem SID": "SID134318004", "viability hit class": "no change", "caspase hit class": "no change", "viability robust z-score": 0.69, "caspase robust z-score": -0.96}
{"gene": "ORM2 (GeneID 5005)", "PubChem SID": "SID134315482", "viability hit class": "no change", "caspase hit class": "no change", "viability robust z-score": 0.42, "caspase robust z-score": 0.18}
{"gene": "BARHL2 (GeneID 343472)", "PubChem SID": "SID135625064", "viability hit class": "no change", "caspase hit class": "no change", "viability robust z-score": 0.47, "caspase robust z-score": -0.6}
{"gene": "CLDN14 (GeneID 23562)", "PubChem SID": "SID134321245", "viability hit class": "no change", "caspase hit class": "no change", "viability robust z-score": -1.9, "caspase robust z-score": 1.02}
{"gene": "ST6GALNAC3 (GeneID 256435)", "PubChem SID": "SID152149937", "viability hit class": "no change", "caspase hit class": "no change", "viability robust z-score": -0.4, "caspase robust z-score": -0.78}
{"gene": "EPHA4 (GeneID 2043)", "PubChem SID": "SID152148822", "viability hit class": "no change", "caspase hit class": "no change", "viability robust z-score": -1.3, "caspase robust z-score": -0.36}
{"gene": "SLC2A1 (GeneID 6513)", "PubChem SID": "SID134312555", "viability hit class": "no change", "caspase hit class": "no change", "viability robust z-score": 0.4, "caspase robust z-score": -0.48}
{"gene": "TRIM24 (GeneID 8805)", "PubChem SID": "SID152156144", "viability hit class": "no change (active)", "caspase hit class": "CA2 (caspase activation)", "viability robust z-score": -0.8, "caspase robust z-score": 8.76}
{"gene": "PIBF1 (GeneID 10464)", "PubChem SID": "SID152156314", "viability hit class": "no change", "caspase hit class": "no change", "viability robust z-score": 1.01, "caspase robust z-score": -0.48}
{"gene": "CCNB2 (GeneID 9133)", "PubChem SID": "SID56478568", "viability hit class": "no change", "caspase hit class": "no change", "viability robust z-score": 0.08, "caspase robust z-score": 0.24}
{"gene": "DYDC1 (GeneID 143241)", "PubChem SID": "SID152148223", "viability hit class": "no change", "caspase hit class": "no change", "viability robust z-score": -1.23, "caspase robust z-score": 0.02}
{"gene": "EPS15 (GeneID 2060)", "PubChem SID": "SID152151135", "viability hit class": "no change", "caspase hit class": "no change", "viability robust z-score": 0.41, "caspase robust z-score": -1.1}
{"gene": "IGHMBP2 (GeneID 3508)", "PubChem SID": "SID152154119", "viability hit class": "no change", "caspase hit class": "no change", "viability robust z-score": -1.04, "caspase robust z-score": 0.43}
{"gene": "RAPGEFL1 (GeneID 51195)", "PubChem SID": "SID152146985", "viability hit class": "no change", "caspase hit class": "no change", "viability robust z-score": 1.53, "caspase robust z-score": -1.03}
{"gene": "CADM4 (GeneID 199731)", "PubChem SID": "SID134310379", "viability hit class": "no change", "caspase hit class": "no change", "viability robust z-score": -1.21, "caspase robust z-score": 4.12}
{"gene": "SSR4 (GeneID 6748)", "PubChem SID": "SID134316547", "viability hit class": "no change", "caspase hit class": "no change", "viability robust z-score": 0.86, "caspase robust z-score": 0.06}
{"gene": "DDX54 (GeneID 79039)", "PubChem SID": "SID152154194", "viability hit class": "no change", "caspase hit class": "no change", "viability robust z-score": -1.38, "caspase robust z-score": -0.58}
{"gene": "RAB5B (GeneID 5869)", "PubChem SID": "SID134310227", "viability hit class": "no change", "caspase hit class": "no change", "viability robust z-score": 0.18, "caspase robust z-score": -0.44}
{"gene": "SORCS2 (GeneID 57537)", "PubChem SID": "SID135622466", "viability hit class": "no change", "caspase hit class": "no change", "viability robust z-score": 0.47, "caspase robust z-score": -1.25}

Reagents listed so far with an active call:
{"gene": "TRIM24 (GeneID 8805)", "PubChem SID": "SID152156144", "viability hit class": "no change (active)", "caspase hit class": "CA2 (caspase activation)", "viability robust z-score": -0.8, "caspase robust z-score": 8.76}
